{"source": "patent US20020152038A1", "about": "“Selection method for aroma substances” (priority 2000, published 2002)", "key": {"[1]": {"experiment": "not given", "remark": "listed apart in the source"}}, "note": "For at least one compound, name, drawing or mass did not settle the structure.", "data": [{"smiles": "CC(=O)OC(C)(C)C1CC=C(C)CC1", "note": "(centres unmarked) [Terpinyl acetate]", "values": [{"measurement": "Differences (Activity minus Prediction, milkshake)", "value": 0.055}, {"measurement": "Differences (Activity minus Prediction, lemonade)", "setting": "[1]", "value": 0.060}]}]}
